Results deposited as PubChem BioAssay AID602196 (INSERM, 2012)

- Purpose: 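Genes whose knock-down alters cisplatin killing of lung cancer cells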
- Cell system: human A549 lung cancer cells
- Reagent: siRNA pair against human genes
- Timing: 48 h transfection before cisplatin; time from cisplatin to read-out not stated
- Treatment: cisplatin at a dose killing half of control-siRNA cells; exact dose and duration not given
- Detection: 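Cisplatin cell death as a shift from the 50% death seen with control siRNA; siRNAs toxic or growth-blocking alone scored 0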
- Direction: two-siRNA summed score (-2 to +2): higher = both siRNAs protect from cisplatin killing; -2 means both sensitise; mean protection from cisplatin (shift in death): higher = protection from cisplatin killing
- Hit rule: 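siRNAs harmful alone (LDH or WST-1) get 0; others get +1 for less and -1 for more cisplatin killing; genes are active when the two siRNAs give the same sign, summing to ±2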
- Meaning of the calls: active = both siRNAs shift cisplatin killing the same way; inactive = no consistent shift, or siRNA harmful alone
In all, the deposit lists about 23,000 reagents; this is a random part of them. In the full data, 455 (2%) got an active call. 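Active includes both protection and sensitisation; some change values fall well beyond the stated -50 to +50 range.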 Not all columns of the deposit are shown. Not given: the amount of reagent.

With CFL1P6, what does the deposit list?
two-siRNA summed score (-2 to +2): 1; mean protection from cisplatin (shift in death) (%): 8.2; call: inactive

How did the screen score LOC389618?
two-siRNA summed score (-2 to +2): 0; mean protection from cisplatin (shift in death) (%): 23.1; call: inactive

For LOC388817, what was measured?
two-siRNA summed score (-2 to +2): 0; mean protection from cisplatin (shift in death) (%): 27.3; call: inactive

With ZNF354A, how do the results read?
two-siRNA summed score (-2 to +2): 0; mean protection from cisplatin (shift in death) (%): -6.3; call: inactive

For BBS5, what was measured?
two-siRNA summed score (-2 to +2): 0; mean protection from cisplatin (shift in death) (%): 4; call: inactive

How did the screen score HPGDS?
two-siRNA summed score (-2 to +2): 0; mean protection from cisplatin (shift in death) (%): 6.6; call: inactive

For UQCRC2, what was measured?
two-siRNA summed score (-2 to +2): 0; mean protection from cisplatin (shift in death) (%): -3.1; call: inactive

For MGC42630, what was measured?
two-siRNA summed score (-2 to +2): -1; mean protection from cisplatin (shift in death) (%): -1.6; call: inactive

How did the screen score EPS15L1?
two-siRNA summed score (-2 to +2): -1; mean protection from cisplatin (shift in death) (%): -19.8; call: inactive

For ANAPC7, what was measured?
two-siRNA summed score (-2 to +2): 0; mean protection from cisplatin (shift in death) (%): -10.8; call: inactive

For LINC02245, what was measured?
two-siRNA summed score (-2 to +2): 0; mean protection from cisplatin (shift in death) (%): 3.8; call: inactive

Which result is listed for GGH?
two-siRNA summed score (-2 to +2): 0; mean protection from cisplatin (shift in death) (%): 0.9; call: inactive

For ESM1, what does the deposit list?
two-siRNA summed score (-2 to +2): -2; mean protection from cisplatin (shift in death) (%): -16.4; call: active

With PPCS, what does the deposit list?
two-siRNA summed score (-2 to +2): 0; mean protection from cisplatin (shift in death) (%): 5; call: inactive

How did the screen score LOC442198?
two-siRNA summed score (-2 to +2): 2; mean protection from cisplatin (shift in death) (%): 16.5; call: active

With DCST1, how do the results read?
two-siRNA summed score (-2 to +2): 0; mean protection from cisplatin (shift in death) (%): 20.6; call: inactive

Which result is listed for LOC442601?
two-siRNA summed score (-2 to +2): 0; mean protection from cisplatin (shift in death) (%): 11.9; call: inactive

For SHOC2, what does the deposit list?
two-siRNA summed score (-2 to +2): -1; mean protection from cisplatin (shift in death) (%): -8.1; call: inactive

What did the screen give for TENT5A?
two-siRNA summed score (-2 to +2): 0; mean protection from cisplatin (shift in death) (%): 0.1; call: inactive

Which result is listed for LOC286076?
two-siRNA summed score (-2 to +2): 0; mean protection from cisplatin (shift in death) (%): 10.4; call: inactive

What did the screen give for CLEC3B?
two-siRNA summed score (-2 to +2): 1; mean protection from cisplatin (shift in death) (%): 9.9; call: inactive

With SLC45A2, how do the results read?
two-siRNA summed score (-2 to +2): 1; mean protection from cisplatin (shift in death) (%): 1.6; call: inactive

Which result is listed for LHFPL2?
two-siRNA summed score (-2 to +2): 1; mean protection from cisplatin (shift in death) (%): 10.4; call: inactive

With HSPA4, how do the results read?
two-siRNA summed score (-2 to +2): 0; mean protection from cisplatin (shift in death) (%): 3.4; call: inactive

For SLC25A10, what was measured?
two-siRNA summed score (-2 to +2): 0; mean protection from cisplatin (shift in death) (%): 1.5; call: inactive

What did the screen give for LZTR1?
two-siRNA summed score (-2 to +2): 0; mean protection from cisplatin (shift in death) (%): 0.4; call: inactive

With FAM13B, what does the deposit list?
two-siRNA summed score (-2 to +2): 0; mean protection from cisplatin (shift in death) (%): 3; call: inactive

What did the screen give for ATP2B3?
two-siRNA summed score (-2 to +2): 1; mean protection from cisplatin (shift in death) (%): 10.9; call: inactive

How did the screen score LOC440035?
two-siRNA summed score (-2 to +2): 2; mean protection from cisplatin (shift in death) (%): 13.7; call: active

What is on record for OR6K3?
two-siRNA summed score (-2 to +2): 1; mean protection from cisplatin (shift in death) (%): 16.5; call: inactive

How did the screen score GSS?
two-siRNA summed score (-2 to +2): -1; mean protection from cisplatin (shift in death) (%): -4.1; call: inactive

3 successive records already listed, for reference:
SHOC2 — two-siRNA summed score (-2 to +2) = -1; mean protection from cisplatin (shift in death) (%) = -8.1; call = inactive
TENT5A — two-siRNA summed score (-2 to +2) = 0; mean protection from cisplatin (shift in death) (%) = 0.1; call = inactive
LOC286076 — two-siRNA summed score (-2 to +2) = 0; mean protection from cisplatin (shift in death) (%) = 10.4; call = inactive
